Test results published in patent publication US20260286287A1, “NOVEL BACTERIAL STRAIN USEFUL FOR TREATING CUTANEOUS INFLAMMATION” (PIERRE FABRE DERMO-COSMETIQUE, priority 2023, published 2026).

System: normal human epidermal keratinocytes (NHEK) stimulated by an inflammatory cytokine mix (IL-4+IL-13+IL-22+TNF-α)
Test: Gene expression (RT-qPCR) in cytokine-stimulated normal human epidermal keratinocytes, in vitro model of chronic atopic dermatitis
Assay type: cell-based
Conditions: cytokine mix 10 ng/ml + JAK inhibitor I 10 μM, Mean HK normalisation, 1440 min
Method: The effects of the bacterial extracts prepared in example 3 (i.e., L0, BL0, S0 and ES0) on gene expression were assessed with normal human epidermal keratinocytes (NHEK) which have been stimulated by an inflammatory cytokine mix (IL-4+IL-13+IL-22+TNF-α), a particularly useful model representative of the chronic phase of atopic dermatitis.
Keratinocytes were seeded in 24-well plates and grown for 24 hours in growth medium with culture conditions at 37° C. and 5% C02. The growth medium comprised Keratinocyte SFM (Serum Free Medium) supplemented with Epidermal Growth Factor (EGF) 0.25 ng/ml, Pituitary extract (PE) 25 μg/ml and Gentamycin 25 μg/ml. The medium was then removed and replaced by assay medium containing either no added extract or compound (negative control), one of the bacterial extracts of example 3 (L0, BL0, S0 or ES0), or the reference compound (JAK Inhibitor | at 10 μM). Cells were then pre-incubated for 24 hours. The assay medium comprised Keratinocyte SFM supplemented with Gentamycin 25 μg/ml.
After pre-incubation, the assay medium was renewed, the mix of cytokines (IL-4+IL-13+TNF-α +IL-22, each at 10 ng/ml) added and the cells then incubated for 24 hours. […]
RT-qPCR (real time quantitative PCR) was used to analyse the expression of markers in total RNA extracted from the cell monolayers of each experimental condition. […]

CC(C)(C)c1nc2c3cc[nH]c(=O)c3c3cc(F)ccc3c2[nH]1 [JAK inhibitor I]
GAPDH (housekeeping) gene expression: 99 % control
RPS28 (housekeeping) gene expression: 102 % control
